Compound in the test: Nc1ncnc2c1ncn2[C@@H]1O[C@H](COP(=O)(O)OP(=O)(O)OP(=O)(O)O)[C@@H](O)[C@H]1O [adenosine triphosphate]
The experiment in a line: NP40-soluble protein abundance relative to vehicle (solubility fold change) (ratio); higher = more soluble protein in presence of ATP. The essentials: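 Data come from three independent experiments in which Dounce-homogenised Jurkat crude lysate was treated at eight concentrations from 0.1 to 10 mM. Treatment ran 10 min at room temperature and then 3 min at 37 °C, after which 0.8% NP40 and benzonase were added for 60 min at 4 °C before ultracentrifugation. The supernatant underwent TMT labelling and LC-MS/MS, and vsn-normalised intensities were expressed as fold change against the detergent-processed vehicle in each replicate.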

Protein sequences, listed by entry. Tags and fused reporters are not part of them. Lines headed by an entry give the natural chain unless they say otherwise; changes in a name come on top.
UniProt P51825: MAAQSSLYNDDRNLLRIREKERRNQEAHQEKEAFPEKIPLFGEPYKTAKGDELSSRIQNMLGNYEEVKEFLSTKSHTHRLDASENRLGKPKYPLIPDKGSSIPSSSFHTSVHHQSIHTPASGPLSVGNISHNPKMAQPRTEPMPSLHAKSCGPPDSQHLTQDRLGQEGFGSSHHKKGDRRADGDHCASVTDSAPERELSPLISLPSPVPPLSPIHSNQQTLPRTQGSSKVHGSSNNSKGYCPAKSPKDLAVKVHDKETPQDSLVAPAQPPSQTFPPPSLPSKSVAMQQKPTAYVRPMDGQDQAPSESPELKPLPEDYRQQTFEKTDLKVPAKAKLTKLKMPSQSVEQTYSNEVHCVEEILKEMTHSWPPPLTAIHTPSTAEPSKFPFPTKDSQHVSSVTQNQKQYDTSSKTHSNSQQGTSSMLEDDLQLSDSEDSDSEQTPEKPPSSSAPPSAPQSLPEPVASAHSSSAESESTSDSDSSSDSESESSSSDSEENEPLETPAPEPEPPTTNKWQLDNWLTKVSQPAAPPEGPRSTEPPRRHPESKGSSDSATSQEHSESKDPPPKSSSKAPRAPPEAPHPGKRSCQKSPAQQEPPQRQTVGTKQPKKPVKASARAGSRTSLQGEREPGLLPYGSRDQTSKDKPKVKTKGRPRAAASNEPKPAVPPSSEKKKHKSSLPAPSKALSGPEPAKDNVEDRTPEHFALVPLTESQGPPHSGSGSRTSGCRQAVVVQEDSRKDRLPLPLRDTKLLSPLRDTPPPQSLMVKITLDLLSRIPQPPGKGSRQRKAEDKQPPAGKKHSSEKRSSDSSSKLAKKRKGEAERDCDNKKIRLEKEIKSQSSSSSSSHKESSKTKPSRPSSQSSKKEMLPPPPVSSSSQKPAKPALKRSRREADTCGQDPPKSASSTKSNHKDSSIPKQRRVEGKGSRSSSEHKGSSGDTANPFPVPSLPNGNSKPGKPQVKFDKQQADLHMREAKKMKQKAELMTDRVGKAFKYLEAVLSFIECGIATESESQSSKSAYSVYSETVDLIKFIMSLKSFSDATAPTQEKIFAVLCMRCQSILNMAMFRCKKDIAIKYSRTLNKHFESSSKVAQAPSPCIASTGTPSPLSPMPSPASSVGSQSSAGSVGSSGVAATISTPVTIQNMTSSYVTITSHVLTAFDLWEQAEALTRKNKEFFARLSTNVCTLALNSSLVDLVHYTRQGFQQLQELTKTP
UniProt Q9UHY1: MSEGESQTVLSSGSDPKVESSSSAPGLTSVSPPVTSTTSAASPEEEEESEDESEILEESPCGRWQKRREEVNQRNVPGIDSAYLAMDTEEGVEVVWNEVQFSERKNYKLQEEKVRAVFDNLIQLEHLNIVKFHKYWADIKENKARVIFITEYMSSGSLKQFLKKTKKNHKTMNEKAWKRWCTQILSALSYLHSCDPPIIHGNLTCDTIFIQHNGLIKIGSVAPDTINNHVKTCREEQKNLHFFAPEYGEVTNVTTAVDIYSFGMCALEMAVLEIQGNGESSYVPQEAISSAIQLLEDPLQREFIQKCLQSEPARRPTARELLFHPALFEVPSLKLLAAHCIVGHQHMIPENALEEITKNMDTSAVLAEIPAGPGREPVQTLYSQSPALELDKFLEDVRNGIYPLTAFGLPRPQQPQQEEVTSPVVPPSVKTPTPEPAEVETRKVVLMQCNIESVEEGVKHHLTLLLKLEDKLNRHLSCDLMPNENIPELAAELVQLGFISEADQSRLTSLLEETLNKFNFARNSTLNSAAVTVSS
UniProt O00746: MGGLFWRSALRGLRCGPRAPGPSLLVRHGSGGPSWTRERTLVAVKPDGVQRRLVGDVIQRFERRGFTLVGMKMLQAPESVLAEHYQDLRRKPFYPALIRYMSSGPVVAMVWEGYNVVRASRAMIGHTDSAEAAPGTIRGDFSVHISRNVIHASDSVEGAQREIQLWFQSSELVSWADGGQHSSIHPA
UniProt P0DJD1, whole entry, looked up: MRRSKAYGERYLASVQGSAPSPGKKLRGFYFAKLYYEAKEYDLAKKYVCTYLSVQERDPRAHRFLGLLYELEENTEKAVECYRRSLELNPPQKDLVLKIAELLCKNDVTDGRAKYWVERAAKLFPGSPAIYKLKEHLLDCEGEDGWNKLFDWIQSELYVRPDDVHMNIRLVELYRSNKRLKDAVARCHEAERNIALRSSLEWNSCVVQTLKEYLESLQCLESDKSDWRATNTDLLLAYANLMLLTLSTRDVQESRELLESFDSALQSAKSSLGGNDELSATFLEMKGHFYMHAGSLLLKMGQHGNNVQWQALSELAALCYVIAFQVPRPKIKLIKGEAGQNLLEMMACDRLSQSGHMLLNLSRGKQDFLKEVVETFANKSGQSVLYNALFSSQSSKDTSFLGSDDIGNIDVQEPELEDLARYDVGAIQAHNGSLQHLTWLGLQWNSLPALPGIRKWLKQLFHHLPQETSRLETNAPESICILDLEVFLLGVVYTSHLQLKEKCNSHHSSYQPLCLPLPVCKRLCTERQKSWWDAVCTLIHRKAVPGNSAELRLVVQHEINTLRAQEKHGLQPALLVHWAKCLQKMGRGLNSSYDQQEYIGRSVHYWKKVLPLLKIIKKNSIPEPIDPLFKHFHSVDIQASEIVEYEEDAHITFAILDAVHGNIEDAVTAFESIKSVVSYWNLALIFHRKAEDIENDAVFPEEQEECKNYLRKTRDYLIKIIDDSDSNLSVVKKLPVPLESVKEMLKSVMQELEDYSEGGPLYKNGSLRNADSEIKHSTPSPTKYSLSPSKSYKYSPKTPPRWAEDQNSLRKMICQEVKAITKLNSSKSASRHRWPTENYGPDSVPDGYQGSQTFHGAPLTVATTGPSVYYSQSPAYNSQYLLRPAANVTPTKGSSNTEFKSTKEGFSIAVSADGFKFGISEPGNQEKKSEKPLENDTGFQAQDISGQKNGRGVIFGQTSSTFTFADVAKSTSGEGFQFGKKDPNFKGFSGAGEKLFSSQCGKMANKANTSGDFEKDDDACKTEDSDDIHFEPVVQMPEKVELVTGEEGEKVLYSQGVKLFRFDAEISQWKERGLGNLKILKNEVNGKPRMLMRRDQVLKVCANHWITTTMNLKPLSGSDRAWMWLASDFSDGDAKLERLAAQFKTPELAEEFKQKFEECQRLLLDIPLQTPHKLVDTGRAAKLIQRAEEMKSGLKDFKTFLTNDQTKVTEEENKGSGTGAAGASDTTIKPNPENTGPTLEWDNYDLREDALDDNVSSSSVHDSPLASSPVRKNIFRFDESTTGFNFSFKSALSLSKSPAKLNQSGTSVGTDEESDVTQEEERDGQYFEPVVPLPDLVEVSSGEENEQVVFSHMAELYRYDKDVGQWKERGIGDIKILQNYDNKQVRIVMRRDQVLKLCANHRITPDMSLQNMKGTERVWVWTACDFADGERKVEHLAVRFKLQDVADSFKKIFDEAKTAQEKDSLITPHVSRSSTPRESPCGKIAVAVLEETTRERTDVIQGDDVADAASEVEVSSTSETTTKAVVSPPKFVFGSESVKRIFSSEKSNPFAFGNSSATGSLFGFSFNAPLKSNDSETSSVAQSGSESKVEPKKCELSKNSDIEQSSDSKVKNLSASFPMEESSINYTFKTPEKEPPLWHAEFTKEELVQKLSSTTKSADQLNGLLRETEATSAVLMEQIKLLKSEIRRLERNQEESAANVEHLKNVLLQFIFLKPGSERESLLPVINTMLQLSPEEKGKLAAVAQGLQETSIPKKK
UniProt P53667: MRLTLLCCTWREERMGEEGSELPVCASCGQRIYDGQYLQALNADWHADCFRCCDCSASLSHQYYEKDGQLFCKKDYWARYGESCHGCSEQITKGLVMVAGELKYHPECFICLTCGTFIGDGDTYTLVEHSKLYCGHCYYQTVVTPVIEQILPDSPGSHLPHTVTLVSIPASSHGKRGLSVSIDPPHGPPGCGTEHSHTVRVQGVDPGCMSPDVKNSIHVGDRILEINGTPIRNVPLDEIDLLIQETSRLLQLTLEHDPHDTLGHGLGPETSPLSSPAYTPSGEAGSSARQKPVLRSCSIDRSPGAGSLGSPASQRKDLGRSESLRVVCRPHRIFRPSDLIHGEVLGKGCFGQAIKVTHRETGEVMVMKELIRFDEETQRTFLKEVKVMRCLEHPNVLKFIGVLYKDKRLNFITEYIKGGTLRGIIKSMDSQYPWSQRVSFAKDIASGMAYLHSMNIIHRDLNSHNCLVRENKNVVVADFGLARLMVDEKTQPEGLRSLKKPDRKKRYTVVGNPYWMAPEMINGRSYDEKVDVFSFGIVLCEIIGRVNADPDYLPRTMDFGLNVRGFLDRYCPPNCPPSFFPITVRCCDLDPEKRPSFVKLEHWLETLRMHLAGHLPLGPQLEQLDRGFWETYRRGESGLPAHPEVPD
UniProt Q9HBM0: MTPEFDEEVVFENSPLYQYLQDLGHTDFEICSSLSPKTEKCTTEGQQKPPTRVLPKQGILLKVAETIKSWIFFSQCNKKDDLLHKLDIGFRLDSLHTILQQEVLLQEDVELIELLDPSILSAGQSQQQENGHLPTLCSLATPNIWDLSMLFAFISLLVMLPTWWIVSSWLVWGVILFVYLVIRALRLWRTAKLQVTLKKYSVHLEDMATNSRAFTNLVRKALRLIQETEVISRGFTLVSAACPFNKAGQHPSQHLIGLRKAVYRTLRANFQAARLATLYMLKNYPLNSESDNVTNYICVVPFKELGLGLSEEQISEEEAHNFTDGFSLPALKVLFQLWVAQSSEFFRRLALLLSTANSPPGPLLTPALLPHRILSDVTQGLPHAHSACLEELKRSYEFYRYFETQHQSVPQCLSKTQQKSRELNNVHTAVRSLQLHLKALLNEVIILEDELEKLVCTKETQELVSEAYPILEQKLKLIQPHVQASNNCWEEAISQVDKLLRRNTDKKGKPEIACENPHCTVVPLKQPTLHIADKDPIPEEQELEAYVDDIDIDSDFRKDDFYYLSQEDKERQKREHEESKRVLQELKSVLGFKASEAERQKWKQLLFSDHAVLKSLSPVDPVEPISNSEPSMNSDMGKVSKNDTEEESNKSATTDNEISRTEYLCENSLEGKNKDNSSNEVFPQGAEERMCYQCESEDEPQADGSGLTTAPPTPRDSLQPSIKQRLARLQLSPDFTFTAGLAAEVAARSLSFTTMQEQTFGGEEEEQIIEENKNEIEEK
UniProt P18887, whole entry: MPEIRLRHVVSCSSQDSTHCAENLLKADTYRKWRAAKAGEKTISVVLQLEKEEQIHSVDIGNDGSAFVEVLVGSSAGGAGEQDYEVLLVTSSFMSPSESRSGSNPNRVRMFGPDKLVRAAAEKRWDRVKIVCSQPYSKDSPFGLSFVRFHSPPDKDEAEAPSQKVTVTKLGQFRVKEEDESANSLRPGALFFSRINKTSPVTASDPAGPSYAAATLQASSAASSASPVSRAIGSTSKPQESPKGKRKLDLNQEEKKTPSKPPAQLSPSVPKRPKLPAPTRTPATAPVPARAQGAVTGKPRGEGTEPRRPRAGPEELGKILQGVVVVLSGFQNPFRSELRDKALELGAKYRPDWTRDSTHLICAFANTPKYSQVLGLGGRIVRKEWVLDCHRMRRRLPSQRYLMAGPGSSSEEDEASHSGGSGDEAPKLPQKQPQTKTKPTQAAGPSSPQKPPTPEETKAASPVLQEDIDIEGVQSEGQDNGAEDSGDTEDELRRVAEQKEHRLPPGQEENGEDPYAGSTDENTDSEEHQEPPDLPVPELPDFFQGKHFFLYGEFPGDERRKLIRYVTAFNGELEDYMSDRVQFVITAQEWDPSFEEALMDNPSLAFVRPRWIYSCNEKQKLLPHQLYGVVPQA
UniProt Q676U5: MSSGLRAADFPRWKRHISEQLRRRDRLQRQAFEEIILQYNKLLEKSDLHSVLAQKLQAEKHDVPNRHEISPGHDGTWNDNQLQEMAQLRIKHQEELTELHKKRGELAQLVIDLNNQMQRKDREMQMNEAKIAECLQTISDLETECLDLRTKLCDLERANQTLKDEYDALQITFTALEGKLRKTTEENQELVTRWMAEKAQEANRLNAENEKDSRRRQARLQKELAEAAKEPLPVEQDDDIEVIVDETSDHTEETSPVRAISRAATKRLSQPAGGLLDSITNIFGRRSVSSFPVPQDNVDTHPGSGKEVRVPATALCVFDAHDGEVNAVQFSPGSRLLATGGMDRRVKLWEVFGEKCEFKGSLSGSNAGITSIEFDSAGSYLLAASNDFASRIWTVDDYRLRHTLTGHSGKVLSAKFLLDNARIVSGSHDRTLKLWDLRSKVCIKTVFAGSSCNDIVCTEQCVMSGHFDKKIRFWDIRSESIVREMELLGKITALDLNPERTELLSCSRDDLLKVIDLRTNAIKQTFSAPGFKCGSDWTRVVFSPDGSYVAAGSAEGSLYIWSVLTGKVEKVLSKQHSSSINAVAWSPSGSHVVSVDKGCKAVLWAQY

± gives the standard deviation of the averaged measurements. This is a selection; strong and weak results do not stand in their true shares.

For the target “F5GXF9 and related entries (UniProt P51825)”, the NP40-soluble protein abundance (concentration: 1mM) was determined as 1.03 ± 0.18; the NP40-soluble protein abundance (concentration: 2mM) amounted to 1.09 ± 0.18; the NP40-soluble protein abundance (concentration: 4mM) stood at 1.19 ± 0.1; the NP40-soluble protein abundance (concentration: 6mM) was 1.16 ± 0.21; the NP40-soluble protein abundance (concentration: 8mM) was 1.03 ± 0.19; the NP40-soluble protein abundance (concentration: 10mM) came out at 1.22 ± 0.078.

On to “E9PJM3 and related entries (UniProt Q9UK99)”, for which the NP40-soluble protein abundance was 1.05 ± 0.068 (concentration: 1mM); 1.05 ± 0.12 (concentration: 2mM); 1.05 ± 0.052 (concentration: 4mM); 1.01 ± 0.11 (concentration: 6mM); 1.02 ± 0.053 (concentration: 8mM); 0.993 ± 0.074 (concentration: 10mM).

Take “E9PI54 and related entries (UniProt Q06609)”: the NP40-soluble protein abundance is 1.04 ± 0.043 (concentration: 1mM); 1.08 ± 0.039 (concentration: 2mM); 1.03 ± 0.034 (concentration: 4mM); 1.06 ± 0.092 (concentration: 6mM); 1.02 ± 0.028 (concentration: 8mM); 1.02 ± 0.04 (concentration: 10mM).

Regarding “F8W6G1 and related entries (UniProt Q9UHY1)”, the NP40-soluble protein abundance is 0.928 ± 0.04 (concentration: 1mM); 0.958 ± 0.023 (concentration: 2mM); 0.9836 ± 0.0027 (concentration: 4mM); 0.9465 ± 0.0031 (concentration: 6mM); 0.935 ± 0.057 (concentration: 8mM); 0.959 ± 0.027 (concentration: 10mM).

For “G3XAJ6 and related entries (UniProt Q14699)”, the NP40-soluble protein abundance reads like this: (concentration: 1mM) 0.964 ± 0.057; (concentration: 2mM) 0.997 ± 0.036; (concentration: 4mM) 1 ± 0.024; (concentration: 6mM) 0.964 ± 0.018; (concentration: 8mM) 0.976 ± 0.016; (concentration: 10mM) 0.951 ± 0.025.

As to “E7ERY8 and related entries (UniProt O15014)”, the NP40-soluble protein abundance reads like this: (concentration: 1mM) 1.03 ± 0.065; (concentration: 2mM) 1.02 ± 0.058; (concentration: 4mM) 1.04 ± 0.07; (concentration: 6mM) 1.08 ± 0.078; (concentration: 8mM) 1.04 ± 0.039; (concentration: 10mM) 1.08 ± 0.049.

In the case of “F2Z2X0 and related entries (UniProt O00746)”, the NP40-soluble protein abundance is, setting by setting: (concentration: 1mM) 1.05 ± 0.024; (concentration: 2mM) 1.11 ± 0.034; (concentration: 4mM) 1.08 ± 0.04; (concentration: 6mM) 1.05 ± 0.084; (concentration: 8mM) 1.08 ± 0.045; (concentration: 10mM) 1.1 ± 0.029.

On to “F8VYC4 and related entries (UniProt P0DJD1+P0DJD0+F8VYC4)”, for which the NP40-soluble protein abundance was determined as 1.01 ± 0.11 (concentration: 1mM); 0.984 ± 0.036 (concentration: 2mM); 1.06 ± 0.077 (concentration: 4mM); 1.05 ± 0.033 (concentration: 6mM); 1 ± 0.051 (concentration: 8mM); 1.06 ± 0.04 (concentration: 10mM).

In the case of “E7EU96 and related entries (UniProt P68400)”, the NP40-soluble protein abundance reads like this: (concentration: 1mM) 1.06 ± 0.079; (concentration: 2mM) 1.03 ± 0.062; (concentration: 4mM) 1.04 ± 0.057; (concentration: 6mM) 1.01 ± 0.082; (concentration: 8mM) 1.11 ± 0.091; (concentration: 10mM) 1.06 ± 0.048.

Take “E7EM64 and related entries (UniProt Q7L5N1)”: the NP40-soluble protein abundance (concentration: 1mM) is 1.06 ± 0.086; the NP40-soluble protein abundance (concentration: 2mM) stood at 1.01 ± 0.033; the NP40-soluble protein abundance (concentration: 4mM) turned out to be 0.998 ± 0.051; the NP40-soluble protein abundance (concentration: 6mM) was 0.968 ± 0.074; the NP40-soluble protein abundance (concentration: 8mM) turned out to be 1.02 ± 0.041; the NP40-soluble protein abundance (concentration: 10mM) came to 0.992 ± 0.052.

“F6UZG9 and related entries (UniProt Q8NFZ0)”: the NP40-soluble protein abundance runs as follows: (concentration: 1mM) 1.05 ± 0.24; (concentration: 2mM) 0.941 ± 0.14; (concentration: 4mM) 0.962 ± 0.12; (concentration: 6mM) 0.922 ± 0.14; (concentration: 8mM) 1.01 ± 0.094; (concentration: 10mM) 0.922 ± 0.094.

Regarding “E9PC47 and related entries (UniProt P53667)”, the NP40-soluble protein abundance came to 1.02 ± 0.12 (concentration: 1mM); 1.05 ± 0.036 (concentration: 2mM); 1.05 ± 0.049 (concentration: 4mM); 0.983 ± 0.012 (concentration: 6mM); 0.95513 ± 0.00065 (concentration: 8mM); 0.911 ± 0.0028 (concentration: 10mM).

For the target “F8W8C2 and related entries (UniProt Q9HBM0)”, the NP40-soluble protein abundance reads like this: (concentration: 1mM) 0.989 ± 0.05; (concentration: 2mM) 0.932 ± 0.11; (concentration: 4mM) 0.925 ± 0.1; (concentration: 6mM) 0.945 ± 0.098; (concentration: 8mM) 0.92 ± 0.082; (concentration: 10mM) 0.89 ± 0.06.

Turning to “F5H8D7 and related entries (UniProt P18887)”, the NP40-soluble protein abundance was determined as 1.02 ± 0.023 (concentration: 1mM); 1.01 ± 0.037 (concentration: 2mM); 0.957 ± 0.022 (concentration: 4mM); 1.04 ± 0.018 (concentration: 6mM); 0.999 ± 0.022 (concentration: 8mM); 1.049 ± 0.0071 (concentration: 10mM).

In the case of “E7EVC7 and related entries (UniProt Q676U5)”, the NP40-soluble protein abundance came to 0.978 ± 0.019 (concentration: 1mM); 0.986 ± 0.045 (concentration: 2mM); 1.01 ± 0.031 (concentration: 4mM); 1.02 ± 0.023 (concentration: 6mM); 0.961 ± 0.049 (concentration: 8mM); 0.965 ± 0.044 (concentration: 10mM).

These data come from the supplement of paper PMC6411743.
